Reference: the supplement of paper PMC6078165

Test system: MDAMB231
Assay: relative JC-1 red fluorescence (viability) vs pre-drug, coculture with fibroblast (fraction); higher = more viable cancer cells
Protocol: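 JC-1 labelled TNBC cells cocultured 1:1 (1,500 cells each) with CellTrace Violet stained primary or stromal fibroblasts in 384-well plates in FluoroBrite medium, treated with one of 42 anticancer drugs at 0.1, 1, 10 or 100 uM. JC-1 red fluorescence (mitochondrial integrity in cancer cells only) was read by plate reader every 8 h for 72 h. Values are normalised to each well's pre-drug value. The stock of one drug was tenfold lower, so its dose labels may be too high.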

CCCCCOC(=O)Nc1nc(=O)n([C@@H]2O[C@H](C)[C@@H](O)[C@H]2O)cc1F [Capecitabine]
relative JC-1 red fluorescence
Details	8 h	16 h	24 h	32 h	40 h	48 h	56 h	64 h	72 h
10 µM, coculture fibroblast: C12385	0.802	0.751	0.673	0.658	0.596	0.562	0.515	0.504	0.477
10 µM, coculture fibroblast: H6013	0.903	0.858	0.812	0.791	0.755	0.714	0.702	0.664	0.613
10 µM, coculture fibroblast: H6019	0.764	0.689	0.671	0.64	0.6	0.577	0.534	0.532	0.507
10 µM, coculture fibroblast: H6076	0.9034	0.821	0.751	0.719	0.674	0.631	0.592	0.568	0.55
10 µM, coculture fibroblast: H6231	0.957	0.87383	0.769	0.699	0.632	0.589	0.532	0.508	0.472
10 µM, coculture fibroblast: HADF	0.888	0.844	0.796	0.767	0.731	0.677	0.673	0.655	0.6113
10 µM, coculture fibroblast: HCFa	0.891	0.833	0.797	0.765	0.711	0.656	0.634	0.599	0.549
10 µM, coculture fibroblast: HCPF	0.848	0.753	0.696	0.662	0.602	0.563	0.5152	0.485	0.468
10 µM, coculture fibroblast: HHSteC	0.909	0.862	0.808	0.748	0.702	0.674	0.627	0.595	0.552
10 µM, coculture fibroblast: HMF	0.898	0.827	0.7524	0.693	0.638	0.5945	0.551	0.5243	0.499
10 µM, coculture fibroblast: HPFa	0.958	0.878	0.812	0.757	0.719	0.668	0.6	0.56	0.494
10 µM, coculture fibroblast: HUF	0.865	0.719	0.764	0.642	0.582	0.566	0.518	0.523	0.503
10 µM, coculture fibroblast: Hs5	0.878	0.7944	0.725	0.678	0.625	0.569	0.524	0.493	0.468
10 µM, coculture fibroblast: Hs27A	0.9048	0.821	0.775	0.738	0.674	0.587	0.601	0.578	0.526
10 µM, coculture fibroblast: Hs343T	0.86	0.772	0.698	0.653	0.603	0.553	0.499	0.473	0.441
10 µM, coculture fibroblast: WS1	0.802	0.692	0.657	0.593	0.542	0.511	0.461	0.46	0.435
100 µM, coculture fibroblast: C12385	0.77	0.7515	0.6618	0.6849	0.639	0.611	0.5847	0.575	0.5585
100 µM, coculture fibroblast: H6013	0.92452	0.8849	0.859	0.866	0.858	0.84	0.833	0.82	0.782
100 µM, coculture fibroblast: H6019	0.767	0.697	0.651	0.633	0.593	0.5718	0.52635	0.517	0.482
100 µM, coculture fibroblast: H6076	0.881	0.824	0.8019	0.80297	0.7794	0.755	0.745	0.7307	0.722
100 µM, coculture fibroblast: H6231	0.9082	0.836	0.762	0.72	0.664	0.638	0.6	0.588	0.559
100 µM, coculture fibroblast: HADF	0.904	0.865	0.827	0.803	0.772	0.723	0.709	0.692	0.641
100 µM, coculture fibroblast: HCFa	0.925	0.854	0.819	0.777	0.737	0.695	0.677	0.651	0.619
100 µM, coculture fibroblast: HCPF	0.89	0.772	0.712	0.689	0.634	0.598	0.566	0.53	0.508
100 µM, coculture fibroblast: HHSteC	0.942	0.88982	0.8417	0.8115	0.77627	0.734	0.6906	0.67	0.623
100 µM, coculture fibroblast: HMF	0.874	0.807	0.754	0.715	0.682	0.64	0.607	0.587	0.562
100 µM, coculture fibroblast: HPFa	0.9633	0.9093	0.8756	0.832	0.817	0.7889	0.73681	0.7182	0.663
100 µM, coculture fibroblast: HUF	0.89	0.761	0.799	0.69631	0.6512	0.6417	0.602	0.618	0.614
100 µM, coculture fibroblast: Hs5	0.908	0.819	0.778	0.735	0.688	0.6339	0.59982	0.574	0.544
100 µM, coculture fibroblast: Hs27A	0.912	0.872	0.842	0.811	0.756	0.6787	0.702	0.685	0.631
100 µM, coculture fibroblast: Hs343T	0.888	0.813	0.767	0.732	0.674	0.632	0.59	0.569	0.549
100 µM, coculture fibroblast: WS1	0.773	0.69	0.6364	0.59	0.545	0.5151	0.468	0.453	0.429

Values are relative to the signal before dosing, not to a vehicle control; the signal also falls without drug.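 Fibroblast labels denote human fibroblasts, mainly primary ones from uterus (C12385, HUF), lung (H6013), bone (Hs27A), adrenal (HADF) and skin (WS1), plus mammary HMF and breast cancer-associated Hs343T. Cancer cells are basal-like or mesenchymal-like triple-negative breast cancer lines. A hit is a response shift exceeding 3x replicate standard deviation. The tissue of the other fibroblasts is not given here.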
